Results: the supplement of paper PMC12819154, “High-throughput peptide-centric local stability assay extends protein–ligand identification to membrane proteins, tissues and bacteria” (Nature Structural & Molecular Biology, 2025)
This is one part of the list. Most entries show no effect beyond the scatter of the controls.

Sequences of proteins named here, by UniProt entry; tags and fusion partners are left off. A change or cut given only in a name is not applied to a line headed by its entry.
UniProt Q9DA69: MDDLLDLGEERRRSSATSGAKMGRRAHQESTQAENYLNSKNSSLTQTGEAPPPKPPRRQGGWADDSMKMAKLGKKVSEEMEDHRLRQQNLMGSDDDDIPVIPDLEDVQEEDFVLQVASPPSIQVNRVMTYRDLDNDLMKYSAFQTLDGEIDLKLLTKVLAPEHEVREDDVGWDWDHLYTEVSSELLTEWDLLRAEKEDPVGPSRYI
UniProt Q9D8T4: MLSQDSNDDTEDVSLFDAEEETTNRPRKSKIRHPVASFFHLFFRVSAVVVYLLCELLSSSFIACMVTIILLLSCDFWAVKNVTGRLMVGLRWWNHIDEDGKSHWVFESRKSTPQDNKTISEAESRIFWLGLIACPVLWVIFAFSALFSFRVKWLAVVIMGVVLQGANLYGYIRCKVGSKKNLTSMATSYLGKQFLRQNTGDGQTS
UniProt Q9DAA6, whole entry: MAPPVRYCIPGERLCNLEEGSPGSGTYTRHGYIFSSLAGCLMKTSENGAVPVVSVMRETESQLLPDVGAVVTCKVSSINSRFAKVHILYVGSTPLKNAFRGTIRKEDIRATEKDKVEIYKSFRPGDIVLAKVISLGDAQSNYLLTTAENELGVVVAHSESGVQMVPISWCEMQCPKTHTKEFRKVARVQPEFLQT
UniProt Q9D2M8: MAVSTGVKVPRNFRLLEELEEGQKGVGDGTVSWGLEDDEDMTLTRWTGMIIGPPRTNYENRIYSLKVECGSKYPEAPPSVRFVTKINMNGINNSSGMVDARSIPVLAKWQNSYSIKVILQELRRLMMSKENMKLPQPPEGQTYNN
UniProt Q9DAJ4: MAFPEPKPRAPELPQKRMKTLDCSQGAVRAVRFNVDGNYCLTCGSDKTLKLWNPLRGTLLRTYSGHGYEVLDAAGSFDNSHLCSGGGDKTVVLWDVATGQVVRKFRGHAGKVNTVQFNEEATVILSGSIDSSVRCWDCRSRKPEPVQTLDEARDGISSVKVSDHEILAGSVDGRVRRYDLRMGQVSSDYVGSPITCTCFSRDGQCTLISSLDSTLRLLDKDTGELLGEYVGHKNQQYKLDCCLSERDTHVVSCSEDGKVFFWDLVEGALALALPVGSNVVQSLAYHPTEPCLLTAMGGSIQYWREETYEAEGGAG
UniProt Q9D8L0: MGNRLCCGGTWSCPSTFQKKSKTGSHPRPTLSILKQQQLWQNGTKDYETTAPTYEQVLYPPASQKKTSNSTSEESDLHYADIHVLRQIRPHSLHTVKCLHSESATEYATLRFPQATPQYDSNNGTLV
UniProt Q9D1J1: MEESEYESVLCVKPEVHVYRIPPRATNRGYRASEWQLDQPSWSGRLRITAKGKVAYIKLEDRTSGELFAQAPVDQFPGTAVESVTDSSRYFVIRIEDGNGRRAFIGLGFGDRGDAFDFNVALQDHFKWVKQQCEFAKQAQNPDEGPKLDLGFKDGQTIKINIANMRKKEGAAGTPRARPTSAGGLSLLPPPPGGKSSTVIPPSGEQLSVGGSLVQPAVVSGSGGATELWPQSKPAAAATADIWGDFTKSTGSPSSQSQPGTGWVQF
UniProt Q9D4V0: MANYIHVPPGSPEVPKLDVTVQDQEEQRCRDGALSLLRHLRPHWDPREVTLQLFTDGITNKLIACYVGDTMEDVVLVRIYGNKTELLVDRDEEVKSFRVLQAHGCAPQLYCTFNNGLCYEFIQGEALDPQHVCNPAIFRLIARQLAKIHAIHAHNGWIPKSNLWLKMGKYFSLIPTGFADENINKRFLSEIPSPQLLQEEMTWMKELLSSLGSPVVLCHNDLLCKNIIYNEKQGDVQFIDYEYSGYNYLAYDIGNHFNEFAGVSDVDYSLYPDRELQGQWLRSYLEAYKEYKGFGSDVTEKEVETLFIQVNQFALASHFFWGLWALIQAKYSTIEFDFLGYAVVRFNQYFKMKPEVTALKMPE
UniProt Q9D2G5: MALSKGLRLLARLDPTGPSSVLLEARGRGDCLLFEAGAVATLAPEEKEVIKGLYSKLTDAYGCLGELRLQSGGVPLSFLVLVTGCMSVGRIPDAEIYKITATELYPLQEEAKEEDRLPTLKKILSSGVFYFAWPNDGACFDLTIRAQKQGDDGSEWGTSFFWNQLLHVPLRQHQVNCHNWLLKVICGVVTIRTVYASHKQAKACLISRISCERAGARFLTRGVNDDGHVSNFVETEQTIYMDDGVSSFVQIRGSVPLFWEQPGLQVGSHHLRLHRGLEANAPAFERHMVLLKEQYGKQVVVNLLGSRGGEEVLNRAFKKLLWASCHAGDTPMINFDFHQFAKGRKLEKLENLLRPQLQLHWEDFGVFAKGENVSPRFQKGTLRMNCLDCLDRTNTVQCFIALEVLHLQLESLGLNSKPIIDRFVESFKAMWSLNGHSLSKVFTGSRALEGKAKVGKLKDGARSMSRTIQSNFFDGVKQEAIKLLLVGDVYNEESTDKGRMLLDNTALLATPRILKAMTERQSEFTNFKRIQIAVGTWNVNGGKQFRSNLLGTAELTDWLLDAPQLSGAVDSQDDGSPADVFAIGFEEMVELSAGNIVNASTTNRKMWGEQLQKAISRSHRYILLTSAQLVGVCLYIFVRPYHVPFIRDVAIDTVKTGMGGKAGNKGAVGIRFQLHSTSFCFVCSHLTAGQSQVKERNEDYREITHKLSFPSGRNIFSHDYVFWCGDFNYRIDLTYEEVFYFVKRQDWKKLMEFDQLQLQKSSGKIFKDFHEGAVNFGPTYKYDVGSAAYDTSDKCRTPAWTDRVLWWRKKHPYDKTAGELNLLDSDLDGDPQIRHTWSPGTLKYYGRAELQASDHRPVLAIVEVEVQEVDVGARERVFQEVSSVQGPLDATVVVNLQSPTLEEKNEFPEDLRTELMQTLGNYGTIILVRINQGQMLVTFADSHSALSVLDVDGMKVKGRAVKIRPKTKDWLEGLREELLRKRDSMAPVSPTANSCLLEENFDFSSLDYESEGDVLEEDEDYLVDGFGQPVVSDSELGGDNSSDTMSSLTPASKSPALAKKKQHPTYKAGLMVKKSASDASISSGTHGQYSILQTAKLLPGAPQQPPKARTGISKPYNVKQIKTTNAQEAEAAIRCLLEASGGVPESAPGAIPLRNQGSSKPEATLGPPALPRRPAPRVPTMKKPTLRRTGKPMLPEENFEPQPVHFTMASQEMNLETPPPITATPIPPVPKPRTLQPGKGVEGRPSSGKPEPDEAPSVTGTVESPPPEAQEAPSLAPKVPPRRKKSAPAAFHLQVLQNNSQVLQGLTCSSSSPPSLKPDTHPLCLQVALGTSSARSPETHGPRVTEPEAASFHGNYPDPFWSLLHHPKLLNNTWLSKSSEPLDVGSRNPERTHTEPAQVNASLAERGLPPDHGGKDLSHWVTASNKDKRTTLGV
UniProt Q9D706, whole entry: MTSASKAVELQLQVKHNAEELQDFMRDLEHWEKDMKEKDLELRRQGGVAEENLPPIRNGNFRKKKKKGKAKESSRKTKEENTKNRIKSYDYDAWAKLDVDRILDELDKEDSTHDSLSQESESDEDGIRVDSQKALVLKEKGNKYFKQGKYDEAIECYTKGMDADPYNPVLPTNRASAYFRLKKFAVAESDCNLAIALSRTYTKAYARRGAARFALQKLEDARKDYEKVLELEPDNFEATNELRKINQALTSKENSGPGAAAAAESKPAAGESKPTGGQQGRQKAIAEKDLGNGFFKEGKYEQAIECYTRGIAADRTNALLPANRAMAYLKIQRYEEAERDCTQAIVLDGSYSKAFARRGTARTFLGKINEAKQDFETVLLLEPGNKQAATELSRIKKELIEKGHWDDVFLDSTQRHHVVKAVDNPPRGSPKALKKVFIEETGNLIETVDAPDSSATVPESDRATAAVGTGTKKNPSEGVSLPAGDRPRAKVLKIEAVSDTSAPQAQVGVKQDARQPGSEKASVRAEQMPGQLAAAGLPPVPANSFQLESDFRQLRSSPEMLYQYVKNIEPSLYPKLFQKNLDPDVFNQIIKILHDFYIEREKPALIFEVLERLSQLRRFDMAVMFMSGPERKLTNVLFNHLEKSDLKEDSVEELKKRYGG
UniProt Q9D8W5: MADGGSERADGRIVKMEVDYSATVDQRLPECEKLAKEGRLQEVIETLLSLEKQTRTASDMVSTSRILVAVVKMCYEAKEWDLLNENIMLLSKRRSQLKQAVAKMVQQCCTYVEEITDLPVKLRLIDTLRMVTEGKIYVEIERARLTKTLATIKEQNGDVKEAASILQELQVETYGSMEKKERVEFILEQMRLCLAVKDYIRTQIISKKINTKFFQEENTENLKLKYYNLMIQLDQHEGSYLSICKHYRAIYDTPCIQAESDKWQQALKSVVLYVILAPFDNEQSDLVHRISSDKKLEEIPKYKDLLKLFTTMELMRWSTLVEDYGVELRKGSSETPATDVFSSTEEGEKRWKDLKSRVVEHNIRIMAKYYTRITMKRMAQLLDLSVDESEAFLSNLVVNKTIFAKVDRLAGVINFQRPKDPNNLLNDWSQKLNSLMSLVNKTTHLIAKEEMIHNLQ
UniProt Q9D8Z2: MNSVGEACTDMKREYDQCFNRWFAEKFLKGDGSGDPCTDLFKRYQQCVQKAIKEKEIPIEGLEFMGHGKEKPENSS
UniProt Q9D6K8: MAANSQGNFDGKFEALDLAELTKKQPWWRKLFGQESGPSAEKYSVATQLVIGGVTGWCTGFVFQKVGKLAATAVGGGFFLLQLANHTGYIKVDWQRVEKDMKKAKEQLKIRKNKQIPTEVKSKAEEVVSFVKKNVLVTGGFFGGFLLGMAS
UniProt Q9D708: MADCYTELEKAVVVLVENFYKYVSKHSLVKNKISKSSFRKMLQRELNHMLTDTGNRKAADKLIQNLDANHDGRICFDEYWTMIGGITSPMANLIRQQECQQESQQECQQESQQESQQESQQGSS
UniProt Q9D8Z6: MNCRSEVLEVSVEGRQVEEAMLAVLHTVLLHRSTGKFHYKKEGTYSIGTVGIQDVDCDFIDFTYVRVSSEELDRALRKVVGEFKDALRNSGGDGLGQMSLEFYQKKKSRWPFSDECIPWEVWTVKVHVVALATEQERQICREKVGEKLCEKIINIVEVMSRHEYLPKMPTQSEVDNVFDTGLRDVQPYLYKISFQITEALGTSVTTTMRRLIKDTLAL
UniProt Q9D816: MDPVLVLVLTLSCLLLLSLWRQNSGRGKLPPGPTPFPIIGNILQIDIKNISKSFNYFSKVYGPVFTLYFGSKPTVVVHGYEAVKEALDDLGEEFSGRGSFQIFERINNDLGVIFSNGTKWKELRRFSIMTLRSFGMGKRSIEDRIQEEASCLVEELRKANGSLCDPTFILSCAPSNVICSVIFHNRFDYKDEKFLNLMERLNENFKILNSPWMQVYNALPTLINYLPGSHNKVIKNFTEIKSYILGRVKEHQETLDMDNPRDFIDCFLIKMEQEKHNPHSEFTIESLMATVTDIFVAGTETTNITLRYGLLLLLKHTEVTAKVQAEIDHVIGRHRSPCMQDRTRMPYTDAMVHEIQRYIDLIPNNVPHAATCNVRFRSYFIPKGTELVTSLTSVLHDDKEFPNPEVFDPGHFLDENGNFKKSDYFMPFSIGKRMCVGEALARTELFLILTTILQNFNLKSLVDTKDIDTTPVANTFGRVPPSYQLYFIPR
UniProt Q9D1I6: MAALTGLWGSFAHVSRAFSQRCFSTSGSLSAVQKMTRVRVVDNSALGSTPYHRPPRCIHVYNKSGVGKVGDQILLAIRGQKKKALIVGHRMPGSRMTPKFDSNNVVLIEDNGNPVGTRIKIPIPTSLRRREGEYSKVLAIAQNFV
UniProt Q9D3B1: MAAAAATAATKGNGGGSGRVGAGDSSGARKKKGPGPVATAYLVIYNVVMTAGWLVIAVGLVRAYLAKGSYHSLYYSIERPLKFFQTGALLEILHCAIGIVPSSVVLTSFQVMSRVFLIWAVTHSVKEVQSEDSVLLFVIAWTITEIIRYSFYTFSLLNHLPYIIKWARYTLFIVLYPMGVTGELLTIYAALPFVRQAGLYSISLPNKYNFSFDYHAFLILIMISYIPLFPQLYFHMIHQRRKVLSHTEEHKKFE
UniProt Q9D8W7: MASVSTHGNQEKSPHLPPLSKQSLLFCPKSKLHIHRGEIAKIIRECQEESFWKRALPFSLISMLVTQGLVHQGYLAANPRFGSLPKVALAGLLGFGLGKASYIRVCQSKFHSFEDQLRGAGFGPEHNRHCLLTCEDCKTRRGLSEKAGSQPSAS
UniProt Q9D7J9: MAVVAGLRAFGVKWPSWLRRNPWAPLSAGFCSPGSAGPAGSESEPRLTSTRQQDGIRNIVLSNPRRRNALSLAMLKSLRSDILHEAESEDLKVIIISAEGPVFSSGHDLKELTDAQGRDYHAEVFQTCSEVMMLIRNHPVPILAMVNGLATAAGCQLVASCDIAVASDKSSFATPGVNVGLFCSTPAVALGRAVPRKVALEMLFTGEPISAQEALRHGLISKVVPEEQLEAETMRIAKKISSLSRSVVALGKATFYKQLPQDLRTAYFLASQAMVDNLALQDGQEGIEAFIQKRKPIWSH
UniProt Q9D1B9, whole entry: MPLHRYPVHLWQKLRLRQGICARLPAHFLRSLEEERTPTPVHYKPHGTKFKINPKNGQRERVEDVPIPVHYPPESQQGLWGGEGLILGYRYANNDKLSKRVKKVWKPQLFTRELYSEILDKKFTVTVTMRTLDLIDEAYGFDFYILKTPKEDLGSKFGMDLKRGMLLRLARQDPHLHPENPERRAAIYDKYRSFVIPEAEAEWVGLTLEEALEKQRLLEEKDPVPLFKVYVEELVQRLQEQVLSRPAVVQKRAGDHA

What follows are targets tested with CN[C@@H]1C[C@H]2O[C@@](C)([C@@H]1OC)n1c3ccccc3c3c4c(c5c6ccccc6n2c5c31)C(=O)NC4 [staurosporine] (assay: log2 fold change of tryptic peptide abundance, ligand vs vehicle (limited proteolysis) (log2 ratio); higher = more trypsin-susceptible (destabilized)). Settings: ligand concentration: 20 uM; sample: mouse liver crude lysate; replicate design: treated separately.
Work on “UniProt Q9DA69 (peptide sequence: RSSATSGAK, peptide start residue: 13)” yielded a log2 fold change of -0.297. Target “UniProt Q9D8T4 (peptide sequence: NLTSMATSYLGK, peptide start residue: 181)” has a log2 fold change of 0.232. With “UniProt Q9DAA6 (peptide sequence: YCIPGER, peptide start residue: 7)” the log2 fold change was 0.191. “UniProt Q9D1R9 (peptide sequence: TPGNRIVYLYTKK, peptide start residue: 25)” showed a log2 fold change of -0.814. In the case of “UniProt Q9D2M8 (peptide sequence: AVSTGVKVPR, peptide start residue: 2)”, the log2 fold change is reported as 0.108. Target “UniProt Q9D2V5 (peptide sequence: DRVGQNLPLCGTECR, peptide start residue: 172)” has a log2 fold change of -0.185. “UniProt Q9DAJ4 (peptide sequence: APELPQKR, peptide start residue: 10)” gave a log2 fold change of 0.358. “UniProt Q9D8L0 (peptide sequence: KTSNSTSEESDLHYADIHVLR, peptide start residue: 66)” gave a log2 fold change of -0.194. Work on “UniProt Q9D8L5 (peptide sequence: HKQELEDMRK, peptide start residue: 196)” yielded a log2 fold change of 0.546. “UniProt Q9D892 (peptide sequence: GQTSGQIVMPR, peptide start residue: 134)” was tested, and the log2 fold change was -0.348. For “UniProt Q9D1J1 (peptide sequence: ARPTSAGGLSLLPPPPGGK, peptide start residue: 177)”, the log2 fold change was 0.135. In the case of “UniProt Q9D4V0 (peptide sequence: IYGNKTELLVDRDEEVK, peptide start residue: 79)”, the log2 fold change is reported as -0.0644. “UniProt Q9D2G5 (peptide sequence: TGISKPYNVK, peptide start residue: 1110)” gave a log2 fold change of 0.305. “UniProt Q9D706 (peptide sequence: SYDYDAWAK, peptide start residue: 88)” gave a log2 fold change of 0.172. In the case of “UniProt Q9D394 (peptide sequence: MNLMNMAK, peptide start residue: 70)”, the log2 fold change is reported as 0.231. Work on “UniProt Q9D8W5 (peptide sequence: LCLAVKDYIR, peptide start residue: 192)” yielded a log2 fold change of 1.36. Work on “UniProt Q9D6Y7 (peptide sequence: VVYRPEHISFEELLK, peptide start residue: 119)” yielded a log2 fold change of -0.368. Work on “UniProt Q9D8Z2 (peptide sequence: FLKGDGSGDPCTDLFKR, peptide start residue: 27)” yielded a log2 fold change of 0.101. With “UniProt Q9D8E6 (peptide sequence: MFAPTKTWRR, peptide start residue: 101)” the log2 fold change was 0.439. Target “UniProt Q9D6L8 (peptide sequence: TYRPLNDVHIKDITIHANPFAQ, peptide start residue: 140)” has a log2 fold change of 0.158. With “UniProt Q9D6K8 (peptide sequence: SKAEEVVSFVKK, peptide start residue: 122)” the log2 fold change was -0.301. “UniProt Q9D708 (peptide sequence: KAADKLIQNLDANHDGR, peptide start residue: 57)” was tested, and the log2 fold change was 0.198. For “UniProt Q9D8Z6 (peptide sequence: VSSEELDR, peptide start residue: 67)”, the log2 fold change was -0.124. Target “UniProt Q9D1L9 (peptide sequence: HDGITVAVHK, peptide start residue: 79)” has a log2 fold change of -0.298. With “UniProt Q9D816 (peptide sequence: FSIMTLR, peptide start residue: 126)” the log2 fold change was -0.241. “UniProt Q9D1I6 (peptide sequence: VVDNSALGSTPYHRPPR, peptide start residue: 40)” was tested, and the log2 fold change was 0.0687. “UniProt Q9D516 (peptide sequence: LHTLDSYEDKQR, peptide start residue: 233)” gave a log2 fold change of -0.53. With “UniProt Q9D3B1 (peptide sequence: VGAGDSSGAR, peptide start residue: 20)” the log2 fold change was -0.0465. “UniProt Q9D8W7 (peptide sequence: QSLLFCPK, peptide start residue: 22)” showed a log2 fold change of 0.184. “UniProt Q9D7J9 (peptide sequence: SVVALGK, peptide start residue: 246)” was tested, and the log2 fold change was 0.249. In the case of “UniProt Q9D1B9 (peptide sequence: YPVHLWQK, peptide start residue: 6)”, the log2 fold change is reported as 0.57.
